Measurements as given in PubChem BioAssay AID540256 (National Center for Advancing Translational Sciences (NCATS), 2011).
The campaign covered roughly 300,000 compounds. About 3,700 (1.2%) were called active. Inconclusive means that the source gave no clear call. Such entries were picked first, then a sample of the others. Calls follow the shape of the full dose curve; tested in HEK293 cells. Potencies beside an inconclusive call are fits to weak or partial responses and may not hold up.

Assay: qHTS for Inhibitors of binding or entry into cells for Lassa Virus; also: nearly all actives have a fitted effect of over 50% in size
Conditions: Lassa virus pseudotype entry inhibition, cell reporter; activity change, negative = inhibition: at 37.9 µM (top of the series) unless noted
% is scaled to controls: 0 for no effect and ±100 for the full control effect; potency is read from the fitted curve at half-maximal effect.

| SMILES | activity change, negative = inhibition | Potency |
| --- | --- | --- |
| COc1ccc(CC(=O)NCC(c2cccs2)S(=O)(=O)c2ccc(C)cc2)cc1 (centres undefined) | inactive: -26.6% [at 46.1 µM] |  |
| CCOC(=O)N1CCC(NS(=O)(=O)c2ccc3c(c2)CCN3C(C)=O)CC1 |  | inconclusive: 15.8 µM [inhibitor, partial curve] |
| Cn1c(NCc2ccccc2)nc2c1c(=O)n(Cc1ccc(Br)cc1)c(=O)n2C |  | inconclusive: 17.8 µM [inhibitor, single point] |
| CCOC(=O)c1c(-c2cccs2)csc1NC(=O)CCCC(=O)O | inactive: -0.111% |  |
| COc1cc([N+](=O)[O-])ccc1NC(=O)COC(=O)c1n[nH]c2ccccc12 | inactive: 2.56% |  |
| Cc1ccc(C(C)C)cc1S(=O)(=O)NC1CC(C)(C)NC(C)(C)C1 |  | inconclusive: 1.12 µM [inhibitor, partial curve, poor fit] |
| O=C(/C=C/c1ccc(OC(F)F)cc1)Nc1cccc(S(=O)(=O)N2CCOCC2)c1 |  | inconclusive: 8.91 µM [inhibitor, partial curve, poor fit] |
| CC1=C(C(=O)OC2CCCC2)C(c2coc3ccccc3c2=O)C2=C(CCCC2=O)N1 (centres undefined) | inactive: -28% [at 46.1 µM] |  |
| Cc1ccccc1C(=O)c1ccccc1C(=O)c1ccccc1 |  | inconclusive: 3.16 µM [activator, single point] |
| CC(=O)C1=C(O)C(=O)N(c2ccc(O)cc2)C1c1ccc(C)cc1 (centres undefined) | inactive: -0.756% [at 46.1 µM] |  |
| COC(=O)c1sc(NC(=O)COc2c(C)cccc2C)nc1C | inactive: -9.62% |  |
| CCCC(C)NC(=O)c1cccc(Oc2ccccc2)c1 (centres undefined) |  | inconclusive: 25.1 µM [inhibitor, partial curve, poor fit] |
| CCCC(=O)Nc1c2c(nn1-c1ccc(F)cc1)CS(=O)(=O)C2 | inactive: -16.8% [at 46.1 µM] |  |
| CNc1ncc(C(=O)c2ccc(Cl)c(Cl)c2)s1 |  | inconclusive: 2.31 µM [activator, full curve, poor fit] |
| CC(OC(=O)c1ccccc1Nc1ccc(SC(F)F)cc1)C(N)=O (centres undefined) |  | inconclusive: 35.5 µM [inhibitor, single point] |
| COc1ccc(C2=C(C)C(=O)N(Cc3ccc(C(=O)NCc4cccc(C)c4)cc3)S2(=O)=O)cc1 |  | inconclusive: 7.08 µM [inhibitor, partial curve, poor fit] |
| O=C1CNC(=S)N1c1nc2ccccc2s1 | inactive: -0.172% |  |
| CCOC(=O)C1CCCN(C(=O)c2nn(-c3ccc(C)cc3)c(=O)n(C)c2=O)C1 (centres undefined) | inactive: 4.1% [at 46.1 µM] |  |
| CC1CCN(C(=O)c2cc(-c3ccc(Br)cc3)on2)CC1 | inactive: 26.4% [at 46.1 µM] |  |
| O=C1CSC(=S)N1c1ccc(Cl)c(Cl)c1 |  | inconclusive: 10 µM [inhibitor, partial curve, poor fit] |
| COc1ccccc1-c1cc(C(=O)N2CCN(c3ccccc3OC)CC2)no1 |  | inconclusive: 14.6 µM [inhibitor, single point] |
| COc1ccc2cnn(-c3ccccc3C)c(=O)c2c1OC |  | inconclusive: 14.1 µM [inhibitor, single point] |
| CCOC(=O)c1c(-c2cccs2)csc1NC(=O)CN1CC(C)OC(C)C1 (centres undefined) |  | inconclusive: 12.6 µM [inhibitor, single point] |

Of the compounds above, 10 contain nitrogen in an aromatic ring.

| SMILES | activity change, negative = inhibition | Potency |
| --- | --- | --- |
| Cn1c(NCc2ccccc2)nc2c1c(=O)n(Cc1ccc(Br)cc1)c(=O)n2C |  | inconclusive: 17.8 µM [inhibitor, single point] |
| COc1cc([N+](=O)[O-])ccc1NC(=O)COC(=O)c1n[nH]c2ccccc12 | inactive: 2.56% |  |
| COC(=O)c1sc(NC(=O)COc2c(C)cccc2C)nc1C | inactive: -9.62% |  |
| CCCC(=O)Nc1c2c(nn1-c1ccc(F)cc1)CS(=O)(=O)C2 | inactive: -16.8% [at 46.1 µM] |  |
| CNc1ncc(C(=O)c2ccc(Cl)c(Cl)c2)s1 |  | inconclusive: 2.31 µM [activator, full curve, poor fit] |
| O=C1CNC(=S)N1c1nc2ccccc2s1 | inactive: -0.172% |  |
| CCOC(=O)C1CCCN(C(=O)c2nn(-c3ccc(C)cc3)c(=O)n(C)c2=O)C1 (centres undefined) | inactive: 4.1% [at 46.1 µM] |  |
| CC1CCN(C(=O)c2cc(-c3ccc(Br)cc3)on2)CC1 | inactive: 26.4% [at 46.1 µM] |  |
| COc1ccccc1-c1cc(C(=O)N2CCN(c3ccccc3OC)CC2)no1 |  | inconclusive: 14.6 µM [inhibitor, single point] |
| COc1ccc2cnn(-c3ccccc3C)c(=O)c2c1OC |  | inconclusive: 14.1 µM [inhibitor, single point] |

(listing goes on)

| SMILES | activity change, negative = inhibition | Potency |
| --- | --- | --- |
| Cc1cc(OCCCCCNCCO)ccc1Cl |  | inconclusive: 23.1 µM [activator, single point] |
| O=S(=O)(Nc1cccc(S(=O)(=O)N2CCOCC2)c1)c1cccs1 | inactive: 1.58% |  |
| Cc1nc2nc(CNC(=O)OC(C)(C)C)nn2c(C)c1CCC(=O)NCc1ccc(F)cc1 | inactive: 7.91% [at 46.1 µM] |  |
| Cc1nc(NC(=O)CCc2ccccc2)sc1C |  | inconclusive: 22.4 µM [inhibitor, single point] |
| CCn1c(COc2cccc3cccnc23)nnc1SC(F)F | inactive: -23.6% [at 46.1 µM] |  |
| CCOc1ccc(C(=O)NCC(=O)NC(C)c2ccc(-n3ccnc3)cc2)cc1OCC (centres undefined) |  | inconclusive: 0.562 µM [inhibitor, full curve, poor fit] |
| CSc1nc2c(cc1C#N)C(=O)CC(C)(C)C2 |  | inconclusive: 0.794 µM [inhibitor, single point] |
| Cc1noc(C)c1COC(=O)c1cccnc1Cl | inactive: 1.61% |  |
| O=C(CSc1nc2sc3c(c2c(=O)n1-c1ccccc1)CCCC3)N/N=C/c1ccccc1C(=O)O |  | inconclusive: 10 µM [activator, partial curve, poor fit] |
| Cn1c(Nn2cnnc2)nc2ccccc21 |  | inconclusive: 15.8 µM [activator, partial curve, poor fit] |
| O=C(NNC(=O)C1CC=CCC1)c1ccccc1Br (centres undefined) |  | inconclusive: 3.16 µM [activator, single point] |
| COc1ccccc1/C=C/C=N/NC(=O)CCn1cnc2ccccc21 |  | inconclusive: 3.16 µM [inhibitor, partial curve, poor fit] |
| O=C(/C=C/c1ccccc1[N+](=O)[O-])c1ccccc1Br |  | inconclusive: 3.55 µM [inhibitor, partial curve, poor fit] |
| O=[N+]([O-])c1cccc(C2(O)COc3ccccc3O2)c1 (centres undefined) |  | inconclusive: 6.31 µM [inhibitor, full curve, poor fit] |
| O=C(OCc1cc(=O)n2nc(-c3cccs3)sc2n1)c1ccc(Cl)cc1 |  | inconclusive: 35.5 µM [activator, single point] |
| CCCc1cc(=O)[nH]c(SCC(=O)NCc2ccc3c(c2)OCO3)n1 | inactive: -0.18% [at 46.1 µM] |  |
| CC(=O)N1CCN(c2ccc(NCc3ccc(C(C)C)cc3)cc2)CC1 |  | inconclusive: 8.2 µM [inhibitor, partial curve] |
| COc1ccc(N=C2C(=S)N(c3ccc(OC)cc3)C(=NS(=O)(=O)c3ccccc3)N2c2ccccc2)cc1 |  | inconclusive: 20 µM [inhibitor, single point] |
| Cn1nc(-c2ccccc2)cc1NC(=O)Nc1ccc(F)cc1 | inactive: -2.27% [at 46.1 µM] |  |
| COc1ccc(-c2nc3ccc(NS(=O)(=O)c4ccc(C)cc4)cc3o2)cc1 | inactive: -9.27% [at 46.1 µM] |  |
| CC(C)OCCCNC(=O)c1ccc(CSc2nc3cccnc3n2Cc2ccccc2)cc1 | inactive: 2.04% [at 46.1 µM] |  |
| CCN(C(=O)c1nn(-c2ccc(OC)c(Cl)c2)c(=O)c2c1c1ccccc1n2C)c1cccc(C(F)(F)F)c1 |  | inconclusive: 10 µM [activator, partial curve] |
| CN(CC(=O)N1CC(=O)N(CCc2ccccc2)C(=O)C1)S(=O)(=O)c1cccc2nsnc12 |  | inconclusive: 4.61 µM [inhibitor, single point] |

Copied from the listing for reference:

| SMILES | activity change, negative = inhibition | Potency |
| --- | --- | --- |
| Cc1nc(NC(=O)CCc2ccccc2)sc1C |  | inconclusive: 22.4 µM [inhibitor, single point] |
| CCn1c(COc2cccc3cccnc23)nnc1SC(F)F | inactive: -23.6% [at 46.1 µM] |  |

More records

| SMILES | activity change, negative = inhibition | Potency |
| --- | --- | --- |
| CC(C)Cn1c(/C=N/Nc2nc3ccccc3[nH]2)nc2ccccc21 |  | inconclusive: 10 µM [inhibitor, partial curve, poor fit] |
| O=C(Cn1cc(C(=O)c2ccccc2F)c2ccccc21)NCc1ccco1 | inactive: 0.898% |  |
| OC(CN1C2=NCCCN2c2ccccc21)c1ccc2c(c1)OCO2 (centres undefined) | inactive: 3.66% |  |
| CCc1ccc(CN(C)C(=O)c2cccc(S(=O)(=O)Nc3ccccc3OC)c2)cc1 |  | inconclusive: 35.5 µM [inhibitor, partial curve, poor fit] |
| O=C(CN1CCN(S(=O)(=O)N2CCCCC2)CC1)Nc1ccc(Cl)c(Cl)c1 |  | inconclusive: 35.5 µM [inhibitor, single point] |
| CC1CCCN(C(=O)c2ccc(S(=O)(=O)N3CCC(c4nc5ccccc5s4)CC3)cc2)C1 (centres undefined) |  | inconclusive: 25.9 µM [inhibitor, single point] |
| Cc1cc(C)c(C(=O)CN2C(=O)NC3(CCCCCC3)C2=O)cc1C | inactive: 3.91% [at 46.1 µM] |  |
| Cc1cc(C)nc(/N=C(\NC(=O)C(C)(C)C)Nc2ccc(F)cc2)n1 | inactive: 20.6% |  |
| Cc1cc(N/N=C/c2ccc(F)cc2)nc(-n2nc(C)cc2C)n1 |  | inconclusive: 10 µM [inhibitor, partial curve, poor fit] |
| Cc1ccc(NC(=O)CSCC(N)=O)cc1C |  | inconclusive: 0.259 µM [inhibitor, partial curve, poor fit] |
| CCN(CC)CCNC(=O)C1CCN(c2nn3cc(-c4ccc(F)cc4)nc3s2)CC1 |  | inconclusive: 35.5 µM [inhibitor, single point] |
| O=C(CCCN1C(=O)/C(=C/c2cccs2)SC1=S)Nc1ccc(O)cc1 |  | inconclusive: 10 µM [inhibitor, partial curve, poor fit] |
| CSC1=N/C(=C\c2ccccc2F)C(=O)S1 |  | inconclusive: 35.5 µM [inhibitor, single point] |
| Cc1ccc2nc(Cl)c(C3CC(c4ccco4)=NN3C(=O)CCCC(=O)O)cc2c1 (centres undefined) |  | inconclusive: 1.12 µM [activator, partial curve, poor fit] |
| Oc1ccc(-c2n[nH]c(=S)n2-c2ccc3c(c2)OCCO3)c(O)c1 |  | inconclusive: 9.2 µM [inhibitor, partial curve] |
| Cc1ccc(-c2cn3c(n2)SCC3)cc1 |  | inconclusive: 10 µM [inhibitor, partial curve, poor fit] |
| O=C(O)C(F)=C1c2ccccc2-c2ccccc21 | inactive: -13.4% |  |
| CC(C)(C)c1ccc(-c2nnc3sc(-c4ccncc4)nn23)cc1 |  | inconclusive: 23.1 µM [inhibitor, partial curve, poor fit] |
| CCOC(=O)c1c(C)[nH]c(C)c1C(=O)COC(=O)c1cc2ccccc2cc1OC |  | inconclusive: 13 µM [inhibitor, partial curve] |
| N#Cc1sc2nc(C3CC3)cc(-c3ccc(Cl)cc3)c2c1N |  | inconclusive: 8.91 µM [inhibitor, partial curve, poor fit] |
| CN(C)CCCN(C(=O)c1ccc(S(=O)(=O)N2CCCCCC2)cc1)c1nc2ccc(F)cc2s1 |  | inconclusive: 35.5 µM [inhibitor, single point] |
| C=CCOC(=O)C1=C(C)NC(SCC)=C(C#N)C1c1ccc(Cl)cc1 (centres undefined) | inactive: -7.11% |  |
| O=C(Nc1cccc(S(=O)(=O)Nc2ccc(SC(F)F)cc2)c1)C1CCC1 |  | inconclusive: 7.94 µM [inhibitor, partial curve, poor fit] |
